Experimental data taken from publication doi:10.1101/2025.05.29.656919 (bioRxiv, 2025).
No constants are given. Whether binding was seen depends on the method and setting. In cells and extracts the contact can be indirect. These calls come from enrichment with a bait or labelling near it, and not all partners need be listed. Tags and fused reporters may be left off the sequences shown.

By UniProt entry, the sequences of proteins in these tests, tags left out. Residues count along the entry.
UniProt Q8S926, residues 1-118: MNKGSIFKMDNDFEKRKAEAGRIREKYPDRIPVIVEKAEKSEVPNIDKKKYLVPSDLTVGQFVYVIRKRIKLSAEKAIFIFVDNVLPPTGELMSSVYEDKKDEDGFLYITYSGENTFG

B1: VDAC3 (voltage-dependent anion channel 3) (protein, UniProt Q9SMX3 1-274)
chain: MVKGPGLYTEIGKKARDLLYRDYQGDQKFSVTTYSSTGVAITTTGTNKGSLFLGDVATQVKNNNFTADVKVSTDSSLLTTLTFDEPAPGLKVIVQAKLPDHKSGKAEVQYFHDYAGISTSVGFTATPIVNFSGVVGTNGLSLGTDVAYNTESGNFKHFNAGFNFTKDDLTASLILNDKGEKLNASYYQIVSPSTVVGAEISHNFTTKENAITVGTQHALDPLTTVKARVNNAGVANALIQHEWRPKSFFTVSGEVDSKAIDKSAKVGIALALKP
B2: VDAC1 (voltage-dependent anion channel 1) (protein, UniProt Q9SRH5 1-276)
chain: MVKGPGLYTEIGKKARDLLYKDHNSDQKFSITTFSPAGVAITSTGTKKGDLLLGDVAFQSRRKNITTDLKVCTDSTFLITATVDEAAPGLRSIFSFKVPDQNSGKVELQYLHEYAGISTSMGLTQNPTVNFSGVIGSNVLAVGTDVSFDTKSGNFTKINAGLSFTKEDLIASLTVNDKGDLLNASYYHIVNPLFNTAVGAEVSHKLSSKDSTITVGTQHSLDPLTSVKARVNSAGIASALIQHEWKPKSFFTISGEVDTKSIDKSAKVGLALALKP
B3: VDAC2 (voltage-dependent anion channel 2) (protein, UniProt Q9FJX3 1-276)
chain: MSKGPGLFTDIGKKAKDLLTRDYNSDQKFSISTYSASGVALTSTALKKGGVHAADVATQYKYKNALFDVKIDTDSSVLTTVTLTEILPSTKAIASFKVPDYNSAKLEVQYFHDHATVTAAAALKQNPLIDITATLGSPVISFGAEAGYDTTSKTFTKYNAGISVTKPDACLSIILGDKGDSLKASYLHHFDEFKRTAAVGEVYRKFSTNENTITVGGLYAIDHSTAVKAKLNNHGTLGALLQHEVLPRSLVTVSSEIDTKALEKHPRFGLSLALKP
B4: ATG7 (protein, UniProt Q94CD5 1-697)
chain: MAEKETPAIILQFAPLNSSVDEGFWHSFSSLKLDKLGIDDSPISITGFYGPCGHPQVSNHLTLLSESLPLDEQSLIASTSHGNRNKCPVPGILYNTNTVESFNKLDKQSLLKAEANKIWEDIQSGKALEDPSVLPRFLVISFADLKKWSFRYWFAFPAFVLDPPVSLIELKPASEYFSSEEAESVSAACNDWRDSDLTTDVPFFLVSVSSDSKASIRHLKDLEACQGDHQKLLFGFYDPCHLPSNPGWPLRNYLALIRSRWNLETVWFFCYRESRGFADLNLSLVGQASITLSSGESAETVPNSVGWELNKGKRVPRSISLANSMDPTRLAVSAVDLNLKLMRWRALPSLNLNVLSSVKCLLLGAGTLGCQVARTLMGWGIRNITFVDYGKVAMSNPVRQSLYNFEDCLGRGEFKAVAAVKSLKQIFPAMETSGVVMAIPMPGHPISSQEEDSVLGDCKRLSELIESHDAVFLLTDTRESRWLPSLLCANANKIAINAALGFDSYMVMRHGAGPTSLSDDMQNLDINKTNTQRLGCYFCNDVVAPQDSMTDRTLDQQCTVTRPGLAPIAGALAVELLVGVLQHPLGINAKGDNSSLSNTGNNDDSPLGILPHQIRGSVSQFSQITLLGQASNSCTACSETVISEYRERGNSFILEAINHPTYLEDLTGLTELKKAANSFNLDWEDDDTDDDDVAVDL

target: yellow fluorescent protein-tagged ATG8e (Arabidopsis) (UniProt Q8S926); test: affinity purification with mass spectrometry

Row | binding | Binder
1 | binds | B1
2 | binds | B2
3 | binds | B3
4 | binds | B4
